# Source: article PMC5113070
# Sequences of proteins named here, by UniProt entry; tags and fusion partners are left off.
# UniProt P51692: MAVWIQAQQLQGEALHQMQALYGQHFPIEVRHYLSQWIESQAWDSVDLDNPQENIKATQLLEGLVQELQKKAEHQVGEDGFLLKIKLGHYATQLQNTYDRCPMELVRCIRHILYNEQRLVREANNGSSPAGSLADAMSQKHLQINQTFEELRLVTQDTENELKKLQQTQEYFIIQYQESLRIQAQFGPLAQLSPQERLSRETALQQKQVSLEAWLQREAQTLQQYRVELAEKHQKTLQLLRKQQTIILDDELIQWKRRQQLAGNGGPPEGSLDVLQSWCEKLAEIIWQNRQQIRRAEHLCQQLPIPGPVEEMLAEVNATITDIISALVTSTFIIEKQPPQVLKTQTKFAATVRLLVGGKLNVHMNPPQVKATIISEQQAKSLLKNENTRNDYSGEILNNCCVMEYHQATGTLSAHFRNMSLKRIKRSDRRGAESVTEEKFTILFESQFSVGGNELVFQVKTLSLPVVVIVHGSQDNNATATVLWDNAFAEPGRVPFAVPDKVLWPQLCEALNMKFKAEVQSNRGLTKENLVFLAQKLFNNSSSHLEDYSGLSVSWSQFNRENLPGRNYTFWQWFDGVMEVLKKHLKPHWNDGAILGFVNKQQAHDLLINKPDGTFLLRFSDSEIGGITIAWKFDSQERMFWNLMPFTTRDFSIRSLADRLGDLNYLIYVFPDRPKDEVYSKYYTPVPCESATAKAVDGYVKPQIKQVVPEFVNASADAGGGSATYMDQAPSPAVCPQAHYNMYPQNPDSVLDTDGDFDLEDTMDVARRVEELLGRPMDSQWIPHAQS
# No constants are given. Whether binding was seen depends on the method and setting. Binding seen in cells or lysates may run through a third protein. Some entries that bind do so weakly or less than the wild type.
# Biological target: STAT5B (UniProt P51692)
# Assay: co-IP; The paper calls it a pull-down assay. Caco-2 cells co-transfected with STAT5B-Flag and STAT5B-GFP were pre-treated for 6 h with osmium complex 1, the positive control compound or vehicle, then stimulated with prolactin (200 ng/mL). 30 ug of lysate was incubated with anti-Flag M2 magnetic beads for 1 h at room temperature in TBS (50 mM Tris HCl, 150 mM NaCl, pH 7.4). Detection was by immunoblot with anti-FLAG and anti-GFP.
substance,measurement,value
STAT5B (from UniProt P51692 1-787),binding,binds
